In patent US20120121574A1, “ANTIMICROBIAL, ANTIVIRAL, ANTICANCER AND IMMUNOMODULATORY PEPTIDES AND USES THEREFORE” (priority 2010, published 2012):
“Also recorded” adds a separate entry of the source. Not every detail of the peptide structures is certain; ends, links or a residue may be inferred. Some entries repeat one wording, which the source may state once for all of them. Where no end group is shown, it is not given here.

Assays:
[1] = test system: Human monocytes; assay: in vitro immunomodulatory activity on human monocytes; format: cell-based
[2] = test system: B16F10-Nex2 melanoma cells; assay: melanoma cell viability by Trypan Blue exclusion; conditions: Table III; Cancer cells
Method: (§1) In vitro activity of N10K against B16F10-Nex2, SKme128 and SKme125 melanoma cells. Peptide N10K and the relative scramble peptide (SP) used as negative control were diluted from 1 mM to 0.05 mM in RPMI with 10% FCS and incubated with B16F10-Nex2, SKme128 and SKme125 cells (5×10^3 cells/well) in 100 microliters per well for 12 hr at 37° C. Each peptide was tested in triplicate. After 12 hr, the cytotoxic activities of the peptides were determined by measuring cell viability by Trypan Blue exclusion. A 50% inhibition of cell growth was taken as a comparative index of cytotoxicity (EC50).
as §1, with “T11F” for “N10K”, “microL” for “microliters”, “37 u°” for “37°”

[3] = test system: SKme125 melanoma cells; assay: melanoma cell viability by Trypan Blue exclusion; conditions: Table III; Cancer cells
[4] = test system: C. albicans SC5314 strain; conditions: for Activity: Table III, in vitro, Fungus
Method: In vitro activity of N10K against C. albicans SC5314 strain. The candidacidal activity of N10K peptide against C. albicans was assessed by a conventional colony forming unit (CFU) assay as previously described (Polonelli et al., 2003; Manfredi et al., 2005). Briefly, cells of C. albicans SC5314 were incubated at 37° C. for 6 hours (hr) in the presence of N10K at the concentration indicated of 20, 12.5 or 6.25 microgram/ml, or in distilled water as control (C). After incubation, cell suspensions were plated on Sabouraud dextrose agar and incubated at 30° C. for 48 hours when CFU were counted (** P<0.01 for N10K treated versus untreated cells, by t test). […]
The alanine-substituted derivatives (asd), defined according to the position held by the alanine-substituted aminoacid, were tested against C. albicans by a conventional colony forming unit (CFU) as previously described (Polonelli et al., 2003). Briefly, cells of C. albicans SC5314 were incubated at 37° C. for 6 hours in the presence of N10K or N10K asd at different scalar concentrations or distilled water as control. After incubation, cell suspensions were plated on Sabouraud dextrose agar and incubated at 30° C. for 48 hours when CFU were counted. Based on several independent replications, the EC50 value of each peptide was calculated by nonlinear regression analysis using Graph Pad Prism 4.01 software, San Diego, Calif., USA. […]
In vitro microbicidal activity of N10K derivative with 2 amino acid substitutions, or 80% sequence identity with native N10K, namely peptide Seq Id. No. 25 was tested against Candida albicans SC5314 as determined by Colony Forming Unit assay.

[5] = test system: HIV IIIB (X4); assay: in vitro HIV IIIB infection of PBMC, p24 ELISA; format: cell-based, HIV-1; conditions: pre-incubation protocol, 10 micrograms/ml for two hours before infection
[6] = test system: C. neoformans 6995 strain; conditions: Table III; in vitro
[7] = test system: M. furfur 101 strain; assay: CFU assay against M. furfur; format: cell-based, Malassezia furfur; conditions: Table III; in vitro
[8] = test system: A. fumigatus 1163 strain; assay: CFU assay against A. fumigatus conidia; format: cell-based, Aspergillus fumigatus; conditions: for Activity: Table III, in vitro; for fungicidal activity (CFU): peptide 100 micrograms/ml, 18 hours 30° C.

Row | Sequence | expression of Dectin-1 in human monocytes ([1]; 10 micrograms/ml, 30 minutes) | IL-6 production by human monocytes ([1]; 10 micrograms/ml, 18 hr, ELISA) | Activity (Stimulation of IL-6, Dectin-1, IL-12p40) ([1]; Table III, in vitro, Immune cells) | Activity [2] | Activity [3] | Activity [4] | viral replication (p24 antigen) [5] | Activity [6] | Activity [7] | Activity [8] | fungicidal activity (CFU) [8] | candidacidal activity (CFU) ([4]; peptide 5, 3 or 2 micrograms/ml, 6 hours 37° C. (C2A and R3A shown at 50 and 100 micrograms/ml))
1 | NQVSLTCLVK [Peptide N10K, N Q V S L T C L V K] | stimulated the expression of Dectin-1 | differentially stimulated the production of I1-6; also recorded: induction | Stimulation | inhibitory | inhibitory | cidal | slightly, but not significantly, reduced | cidal | cidal | cidal | showed fungicidal activity | –
2 | TCRVDHRGLTF [Peptide T11F, T C R V D H R G L T F] | – | – | – | inhibitory | inhibitory | cidal | – | cidal | cidal | cidal | showed fungicidal activity | showed candidacidal activity
